Reference: the supplement of paper PMC8728848
The other results are listed elsewhere or left out.

How the values were obtained:
Test in all cases: glycan array binding signal (z-score within array); higher = stronger binding
Settings in all cases: glycan notation: IUPAC condensed, linker removed
[1] = target: Gal(a1-3)Gal(b1-4)GlcNAc(b1-2)Man
Summary of the method: (§1)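 Glycan array data came from 3228 arrays in the Consortium for Functional Glycomics database, and only arrays with an available protein sequence were kept. Glycan names were put into IUPAC-condensed notation, and columns mapping to the same glycan were averaged. The binding signal is a within-array Z-score, averaged across arrays of one protein sequence run at different concentrations or buffers and across linkers. A negative Z-score can be read as non-binding.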

[2] = target: Gal(a1-3)Gal(b1-4)GlcNAc(b1-2)Man(a1-3)[Gal(a1-3)Gal(b1-4)GlcNAc(b1-2)Man(a1-6)]Man(b1-4)GlcNAc(b1-4)GlcNAc
Summary of the method: as §1

[3] = target: Gal(a1-3)Gal(b1-4)GlcNAc(b1-3)GalNAc
Summary of the method: as §1

[4] = target: Gal(a1-3)Gal(b1-4)GlcNAc(b1-6)GalNAc
Summary of the method: as §1

[5] = target: Gal(a1-3)Gal(b1-4)[Fuc(a1-3)]GlcNAc
Summary of the method: as §1

[6] = target: Gal(a1-3)Gal(b1-4)[Fuc(a1-3)]GlcNAc(b1-2)Man(a1-3)[Gal(a1-3)Gal(b1-4)[Fuc(a1-3)]GlcNAc(b1-2)Man(a1-6)]Man(b1-4)GlcNAc(b1-4)GlcNAc
Summary of the method: as §1

[7] = target: Gal(a1-3)GalNAc
Summary of the method: as §1

[8] = target: Gal(a1-3)[Gal(a1-4)]Gal(b1-4)GlcNAc
Summary of the method: as §1

[9] = target: Gal(a1-4)Gal(b1-3)GlcNAc(b1-2)Man(a1-3)[Gal(a1-4)Gal(b1-3)GlcNAc(b1-2)Man(a1-6)]Man(b1-4)GlcNAc(b1-4)GlcNAc
Summary of the method: as §1

[10] = target: Gal(a1-4)Gal(b1-4)Glc
Summary of the method: as §1

[11] = target: Gal(a1-4)Gal(b1-4)GlcNAc
Summary of the method: as §1

[12] = target: Gal(a1-4)Gal(b1-4)GlcNAc(b1-2)Man(a1-3)[Gal(a1-4)Gal(b1-4)GlcNAc(b1-2)Man(a1-6)]Man(b1-4)GlcNAc(b1-4)GlcNAc
Summary of the method: as §1

[13] = target: Gal(a1-4)Gal(b1-4)GlcNAc(b1-3)Gal(b1-4)Glc
Summary of the method: as §1

[14] = target: Gal(a1-4)GlcNAc
Summary of the method: as §1

[15] = target: Gal(a1-6)Glc
Summary of the method: as §1

[16] = target: Gal(b1-2)Gal
Summary of the method: as §1

[17] = target: Gal(b1-3)Gal
Summary of the method: as §1

[18] = target: Gal(b1-3)Gal(b1-4)GlcNAc
Summary of the method: as §1

[19] = target: Gal(b1-3)GalNAc
Summary of the method: as §1

[20] = target: Gal(b1-3)GalNAc(a1-3)[Fuc(a1-2)]Gal(b1-4)Glc
Summary of the method: as §1

[21] = target: Gal(b1-3)GalNAc(a1-3)[Fuc(a1-2)]Gal(b1-4)GlcNAc
Summary of the method: as §1

[22] = target: Gal(b1-3)GalNAc(b1-3)Gal
Summary of the method: as §1

[23] = target: Gal(b1-3)GalNAc(b1-3)Gal(a1-4)Gal(b1-4)Glc
Summary of the method: as §1

[24] = target: Gal(b1-3)GalNAc(b1-4)Gal(b1-4)Glc
Summary of the method: as §1

[25] = target: Gal(b1-3)GalNAc(b1-4)[Neu5Ac(a2-3)]Gal(b1-4)Glc
Summary of the method: as §1

[26] = target: Gal(b1-3)GlcNAc
Summary of the method: as §1

[27] = target: Gal(b1-3)GlcNAc(a1-3)Gal(b1-4)GlcNAc
Summary of the method: as §1

[28] = target: Gal(b1-3)GlcNAc(a1-6)Gal(b1-4)GlcNAc
Summary of the method: as §1

[29] = target: Gal(b1-3)GlcNAc(b1-2)Man
Summary of the method: as §1

[30] = target: Gal(b1-3)GlcNAc(b1-2)Man(a1-3)[Gal(b1-3)GlcNAc(b1-2)Man(a1-6)]Man(b1-4)GlcNAc(b1-4)GlcNAc
Summary of the method: as §1

[31] = target: Gal(b1-3)GlcNAc(b1-2)Man(a1-3)[Gal(b1-3)GlcNAc(b1-2)Man(a1-6)]Man(b1-4)GlcNAc(b1-4)[Fuc(a1-6)]GlcNAc
Summary of the method: as §1

[32] = target: Gal(b1-3)GlcNAc(b1-2)Man(a1-3)[GlcNAc(b1-4)][Gal(b1-3)GlcNAc(b1-2)Man(a1-6)]Man(b1-4)GlcNAc(b1-4)GlcNAc
Summary of the method: as §1

[33] = target: Gal(b1-3)GlcNAc(b1-2)[Gal(b1-3)GlcNAc(b1-6)]Man(a1-6)[Gal(b1-3)GlcNAc(b1-2)Man(a1-3)]Man(b1-4)GlcNAc(b1-4)GlcNAc
Summary of the method: as §1

[34] = target: Gal(b1-3)GlcNAc(b1-3)Gal(b1-3)GlcNAc
Summary of the method: as §1

[35] = target: Gal(b1-3)GlcNAc(b1-3)Gal(b1-4)Glc
Summary of the method: as §1

[36] = target: Gal(b1-3)GlcNAc(b1-3)Gal(b1-4)GlcNAc
Summary of the method: as §1

[37] = target: Gal(b1-3)GlcNAc(b1-3)Gal(b1-4)GlcNAc(b1-2)Man(a1-3)[Gal(b1-3)GlcNAc(b1-3)Gal(b1-4)GlcNAc(b1-2)Man(a1-6)]Man(b1-4)GlcNAc(b1-4)GlcNAc
Summary of the method: as §1

[38] = target: Gal(b1-3)GlcNAc(b1-3)Gal(b1-4)GlcNAc(b1-2)[Gal(b1-3)GlcNAc(b1-3)Gal(b1-4)GlcNAc(b1-6)]Man(a1-6)[Gal(b1-3)GlcNAc(b1-3)Gal(b1-4)GlcNAc(b1-2)Man(a1-3)]Man(b1-4)GlcNAc(b1-4)[Fuc(a1-6)]GlcNAc
Summary of the method: as §1

[39] = target: Gal(b1-3)GlcNAc(b1-3)Gal(b1-4)GlcNAc(b1-3)Gal(b1-4)GlcNAc(b1-2)[Gal(b1-3)GlcNAc(b1-3)Gal(b1-4)GlcNAc(b1-3)Gal(b1-4)GlcNAc(b1-6)]Man(a1-6)[Gal(b1-3)GlcNAc(b1-3)Gal(b1-4)GlcNAc(b1-3)Gal(b1-4)GlcNAc(b1-2)Man(a1-3)]Man(b1-4)GlcNAc(b1-4)[Fuc(a1-6)]GlcNAc
Summary of the method: as §1

[40] = target: Gal(b1-3)GlcNAc(b1-3)Gal(b1-4)GlcNAc(b1-6)[Gal(b1-3)GlcNAc(b1-3)]Gal(b1-4)Glc
Summary of the method: as §1

[41] = target: Gal(b1-3)GlcNAc(b1-3)Gal(b1-4)[Fuc(a1-3)]GlcNAc
Summary of the method: as §1

[42] = target: Gal(b1-3)GlcNAc(b1-3)Gal(b1-4)[Fuc(a1-3)]GlcNAc(b1-6)[Gal(b1-3)GlcNAc(b1-3)]Gal(b1-4)Glc
Summary of the method: as §1

[43] = target: Gal(b1-3)GlcNAc(b1-3)GalNAc
Summary of the method: as §1

[44] = target: Gal(b1-3)GlcNAc(b1-6)Gal(b1-4)GlcNAc
Summary of the method: as §1

[45] = target: Gal(b1-3)GlcNAc(b1-6)GalNAc
Summary of the method: as §1

B1: Aap arpt (Staphylococcus epidermidis) (protein)
chain: NNEAPQMSSTLQAEEGSNAEAPQSEPTKAEEGGNAEAAQSEPTKAEEGGNAEAPQSEPTKAEEGGNAEAAQSEPTKTEEGSNVKAAQSEPTKAEEGSNAEAPQSEPTKTEEGSNAKAAQSEPTKAEEGGNAEAAQSEPTKTEEGSNAEAPQSEPTKAEEGGYAEAPQSEPTKTEEGGNAEAPNVPTIKA
glycan array binding signal (z-score) [1]: 0.07
glycan array binding signal (z-score) [2]: -0.946
glycan array binding signal (z-score) [3]: 0.34
glycan array binding signal (z-score) [4]: 3.25
glycan array binding signal (z-score) [5]: -1.04
glycan array binding signal (z-score) [6]: -0.232
glycan array binding signal (z-score) [7]: -0.699
glycan array binding signal (z-score) [8]: -0.562
glycan array binding signal (z-score) [9]: -0.328
glycan array binding signal (z-score) [10]: 0.092
glycan array binding signal (z-score) [11]: -0.634
glycan array binding signal (z-score) [12]: 0.476
glycan array binding signal (z-score) [13]: 0.169
glycan array binding signal (z-score) [14]: -1.01
glycan array binding signal (z-score) [15]: -0.445
glycan array binding signal (z-score) [16]: -0.524
glycan array binding signal (z-score) [17]: 0.993
glycan array binding signal (z-score) [18]: 0.621
glycan array binding signal (z-score) [19]: -0.104
glycan array binding signal (z-score) [20]: -0.545
glycan array binding signal (z-score) [21]: -0.871
glycan array binding signal (z-score) [22]: -1.35
glycan array binding signal (z-score) [23]: 0.911
glycan array binding signal (z-score) [24]: 0.305
glycan array binding signal (z-score) [25]: -0.13
glycan array binding signal (z-score) [26]: 0.586
glycan array binding signal (z-score) [27]: -0.865
glycan array binding signal (z-score) [28]: 0.977
glycan array binding signal (z-score) [29]: 0.25
glycan array binding signal (z-score) [30]: 0.414
glycan array binding signal (z-score) [31]: 0.362
glycan array binding signal (z-score) [32]: -0.635
glycan array binding signal (z-score) [33]: -0.435
glycan array binding signal (z-score) [34]: -0.305
glycan array binding signal (z-score) [35]: 0.135
glycan array binding signal (z-score) [36]: -1.2
glycan array binding signal (z-score) [37]: 1.85
glycan array binding signal (z-score) [38]: 1.02
glycan array binding signal (z-score) [39]: -0.32
glycan array binding signal (z-score) [40]: 0.709
glycan array binding signal (z-score) [41]: 0.937
glycan array binding signal (z-score) [42]: -0.751
glycan array binding signal (z-score) [43]: -0.506
glycan array binding signal (z-score) [44]: -0.699
glycan array binding signal (z-score) [45]: 0.207
